Results on 1 substance are retold here after PMC4327575.

The target in this assay is T1, Shrub (Drosophila) (UniProt Q8T0Q4).
T1 sequence: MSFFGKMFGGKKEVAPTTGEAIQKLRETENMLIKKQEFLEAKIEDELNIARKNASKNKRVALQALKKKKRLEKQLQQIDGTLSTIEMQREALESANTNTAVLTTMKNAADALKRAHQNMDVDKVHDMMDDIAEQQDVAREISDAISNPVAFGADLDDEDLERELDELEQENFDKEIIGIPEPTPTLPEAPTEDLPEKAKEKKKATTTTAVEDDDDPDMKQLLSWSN
As to the kind of experiment: two-hybrid; yeast Y190 transformed with pGBKT7 and pVP16 constructs; Shrub as bait; selection on media lacking tryptophan and leucine, 3 days at 30°C; read-out β-galactosidase activity in yeast extracts.

No constants are given. Whether binding was seen depends on the method and setting.

As for “Mop Bro-domain mutant I201D/V205D (aa 1-389) (Drosophila) (domain or fragment)”, the binding result was “no binding”.
